Binding data for one molecule are collected here from WO2016071355A1.

Protein sequences, listed by entry. Tags and fused reporters are not part of them. Lines headed by an entry give the natural chain unless they say otherwise; changes in a name come on top.
UniProt Q5VAN0: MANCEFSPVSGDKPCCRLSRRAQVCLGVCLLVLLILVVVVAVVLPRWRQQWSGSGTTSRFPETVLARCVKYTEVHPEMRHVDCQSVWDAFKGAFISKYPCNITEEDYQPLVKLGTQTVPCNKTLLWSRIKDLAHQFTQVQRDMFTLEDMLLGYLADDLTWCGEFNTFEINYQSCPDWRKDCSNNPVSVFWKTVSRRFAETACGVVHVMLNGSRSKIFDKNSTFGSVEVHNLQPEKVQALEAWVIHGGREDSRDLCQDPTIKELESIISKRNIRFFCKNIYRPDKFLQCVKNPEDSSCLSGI
UniProt P28907: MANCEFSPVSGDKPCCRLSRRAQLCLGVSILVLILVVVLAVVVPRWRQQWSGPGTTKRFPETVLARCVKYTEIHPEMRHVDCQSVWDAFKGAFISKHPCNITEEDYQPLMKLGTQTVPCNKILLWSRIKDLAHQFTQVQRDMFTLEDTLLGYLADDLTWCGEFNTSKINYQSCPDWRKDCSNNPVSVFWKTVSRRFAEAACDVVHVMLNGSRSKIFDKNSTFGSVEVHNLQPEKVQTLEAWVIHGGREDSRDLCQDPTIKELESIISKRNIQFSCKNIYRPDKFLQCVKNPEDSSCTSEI

The target of test [1] is soluble extracellular region of cynomolgus monkey CD38 antigen fused to a 6-His-tag (cynomolgus monkey) (UniProt Q5VAN0). In words: SPR. On the technique in general: SPR reads the build-up and loss of mass on a sensor chip optically.
Test [2] concerns the target soluble extracellular region of human CD38 fused to a 6-His-tag (human) (UniProt P28907). In words: SPR, antibody immobilized, human CD38 extracellular domain injected as control.

Results are given in words; binding and its absence hold for the method and conditions named. Some entries that bind do so weakly or less than the wild type.

B1: humanized 9G7 antibody (best-fit version) of Example 10 (antibody, human IgG1, kappa, V domains shown)
VH: QVTLKESGPTLVKPTQTLTLTCTFSGLSLSTSGKGVGWIRQPPGKALEWLAHIWWDDDKRYNPALKSRLTITKDTSKNQVVLTMTNMDPVDTATYYCARIELGRSYVMDYWGQGTLVTVSS
VL: DIQMTQSPSSLSASVGDRVTITCQASQDVITSVAWFQQKPGKAPKLLIYSASYRYTGVPSRFSGSGSGTDFTFTISSLQPEDIATYYCQQHYTIPLTFGQGTKLEIKR
Turning to B1, the binding result in test [1] and in test [2] was “binds” each time.
